These are yes or no findings as the source states them, for the method shown. Binding seen in cells or lysates may run through a third protein. These calls come from enrichment with a bait or labelling near it, and not all partners need be listed.
Target: T1, MEIOC (Meiosis specific with coiled-coil domain), endogenous in mouse testis (mouse (endogenous in testis)) (UniProt A2AG06)
T1 sequence: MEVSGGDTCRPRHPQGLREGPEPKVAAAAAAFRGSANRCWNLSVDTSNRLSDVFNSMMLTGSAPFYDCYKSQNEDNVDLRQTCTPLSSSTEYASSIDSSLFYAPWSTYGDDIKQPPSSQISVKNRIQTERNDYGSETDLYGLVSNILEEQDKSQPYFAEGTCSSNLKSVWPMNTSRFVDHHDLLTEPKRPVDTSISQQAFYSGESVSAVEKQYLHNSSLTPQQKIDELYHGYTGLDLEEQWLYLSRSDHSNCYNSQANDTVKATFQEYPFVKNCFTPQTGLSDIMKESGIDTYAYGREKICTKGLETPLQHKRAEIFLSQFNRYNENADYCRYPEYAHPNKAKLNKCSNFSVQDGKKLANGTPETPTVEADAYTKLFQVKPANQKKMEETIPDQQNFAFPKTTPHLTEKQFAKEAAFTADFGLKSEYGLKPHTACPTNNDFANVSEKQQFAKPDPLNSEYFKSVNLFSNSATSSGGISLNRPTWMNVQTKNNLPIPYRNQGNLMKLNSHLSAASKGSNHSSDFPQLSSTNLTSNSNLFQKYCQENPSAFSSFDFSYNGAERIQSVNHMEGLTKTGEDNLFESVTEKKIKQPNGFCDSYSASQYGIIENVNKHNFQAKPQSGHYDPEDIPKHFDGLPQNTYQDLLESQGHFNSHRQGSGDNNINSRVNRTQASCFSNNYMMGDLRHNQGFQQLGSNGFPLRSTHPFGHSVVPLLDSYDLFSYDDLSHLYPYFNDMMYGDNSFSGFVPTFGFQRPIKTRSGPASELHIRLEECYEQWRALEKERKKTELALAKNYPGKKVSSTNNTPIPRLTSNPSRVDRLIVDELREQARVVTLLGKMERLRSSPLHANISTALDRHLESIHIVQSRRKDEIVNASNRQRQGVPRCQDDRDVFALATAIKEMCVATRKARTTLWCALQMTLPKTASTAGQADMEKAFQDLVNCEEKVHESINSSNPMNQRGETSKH
Assay: affinity purification with mass spectrometry; IP of MEIOC-containing complexes with a commercial anti-MEIOC antibody from young (16 d.p.p.) Meioc+/+ testis extracts, Meioc-/- testes as control; extracts treated with 270 U/ml benzonase; nanoLC-LTQ-Orbitrap XL

B1: YTHDC2, endogenous in mouse testis (protein, UniProt B2RR83 1-1445)
chain: MSRPSSVSPRPPAPSGGGTGGGGGGSGGGGGGGGGGPASCGPGGGGRAKGLKDIRIDEEVKIAVNIALERFRYGDQREMEFPSSLTSTERAFIHRLSQSLGLVSKSKGKGANRYLTVKKKDGSETAHAMMTCNLTHNTKHAVRSLIQRFPVTNKERTELLPKTERGNVFAVEAENREMSKTSGRLNNGIPQVPVKRGESEFDSFRQSLPVFEKQEEIVKIIKENKVVLIVGETGSGKTTQIPQFLLDDCFKNGIPCRIFCTQPRRLAAIAVAERVAAERRERIGQTIGYQIRLESRVSPKTLLTFCTNGVLLRTLMAGDSTLSTVTHVIVDEVHERDRFSDFLLTKLRDLLQKHPTLKLILSSAALDVNLFIRYFGSCPVIYIQGRPFEVKEMFLEDILRTTGYTNKEMLKYKKEKQREEKQQTTLTEWYSAQENTFKPESQRQRAVASVSEEYDLLDDGGDAVFSQLTEKDVNCLEPWLIKEMDACLSDIWLHKDVDAFAQVFHLILTENVSVDYRHSETSATALMVAAGRGFTSQVEQLISMGANVHSKASNGWMALDWAKHFGQTEIVDLLESYSASLEFGNLDESSLVQTNGNDLSAEDRELLKAYHHSFDDEKVDLDLIMHLLYNICHSCDAGAILIFLPGYDEIVGLRDRILFDDKRFADNTHRYQVFMLHSNMQTSDQKKVLKNPPAGVRKIILSTNIAETSITVNDVVFVIDSGKVKEKSFDALNFVTMLKMVWISKASAIQRKGRAGRCRPGICFRLFSRLRFQNMLEFQTPELLRMPLQELCLHTKLLAPVNCTIADFLMKAPEPPPALIVRNAVQMLKTIDAMDAWEDLTELGYHLADLPVEPHLGKMVLCAVVLKCLDPILTIACTLAYRDPFVLPTQASQKRAAMLCRKRFTAGTFSDHMALLRAFQAWQKARSDGWERAFCEKNFLSQATMEIIIGMRTQLLGQLRASGFVRARGGGDIRDVNTNSENWAVVKAALVAGMYPNLVHVDRENVILTGPKEKKVRFHPTSVLSQPQYKKIPPANGQAAAIQALPTDWLIYDEMTRAHRIANIRCCSAVTPVTVLVFCGPARLASNALQEPSSFRADGIPNDSSDSEMEDRTTANLAALKLDEWLNFKLEPEAASLLLQLRQKWHSLFLRRMRAPSKPWSQVDEATIRAIIAVLSTEEQSAGLQQPSGIGQRPRPMSSEELPLASSWRSNNSRKSTADTEFADGSTTGERVLMKSPSPALHPPQKYKDRGILHPKRSTDDRSDQSSVKSTDSSSYPSPCASPSPPSSGKGSKSPSPRPNMPIRYFIMKSSNLRNLEISQQKGIWSTTPSNERKLNRAFWESSMVYLVFSVQGSGHFQGFSRMSSEIGREKSQDWGSAGLGGVFKVEWIRKESLPFQFAHHLLNPWNDNKKVQISRDGQELEPQVGEQLLQLWERLPLGEKTTSD
binding: binds

Source: article PMC4729902
